In PubChem BioAssay AID1347423 (Functional Genomics Laboratory (NCATS/FGL), 2020):
In all, about 52,000 sequences went through this assay and about 210 (0.4%) were called active.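 The calls were made as follows: active = gene whose silencing raises cell survival under the drug, median off-target-corrected z-score across its silencing RNAs 2 or more; inactive = the rest.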 Some of the results follow.

test: Resistance to Poly (ADP-Ribose) Polymerase inhibitor: Gene Identification via Genome-wide siRNA Screen; settings: mouse BRCA2 R2336H ES cells, olaparib, CellTiter-Glo viability; stronger effect = higher value
How it was run: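 Genome-wide siRNA screen (3 siRNAs/gene, 20 nM) in mouse ES cells carrying hypomorphic BRCA2 R2336H; olaparib 500 nM added 48 h post-transfection, CellTiter-Glo viability 72 h later. Normalized to plate-median negative control; MAD z-scores, gene median, seed-adjusted.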

Row | Sequence | z-score
1 | GGCAAUAACUGCUUUAUCUTT against Olfr509 | inactive: 1.6
2 | CGUGGACUUUAAGGAGCUGTT against Gdf7 | inactive: 0.0153
3 | CCUAACUUACCUUCAUCUATT against Fbxo7 | inactive: 1.18
4 | GCUGUAACAAAGGAAAUAGTT against Nos2 | inactive: 0.356
5 | GUUCCAUCUCCUUCCAGGATT against Cdc42ep2 | inactive: -1.35
6 | GGUGACAGAGAUUUUCGAATT against D15Ertd781e | inactive: 0.203
7 | GGCUACUCCUAUGACCUGATT against Psmb5 | inactive: -2.41
8 | GGCACAAACCUCUUUUGUUTT against Rtkn | inactive: 2.12
9 | GGGAUAACCAGUGAAUUUATT against Pcdhb15 | inactive: 0.407
10 | GCAGUGUCCCUAAAUGUUCTT against Adra1d | inactive: 0.159
11 | GGAUGUGGCCAUGGACUUUTT against Zfp286 | inactive: 0.829
12 | GCCUGAACUUCUUAGCAUGTT against Uchl3 | inactive: -0.383
13 | GCAGAAGUCGAGCUAUGUUTT against Zfp365 | inactive: -1.5
14 | CCAAGAUGCGAGUGGAGAGTT against Rgs9 | inactive: -0.438
15 | GCCACACUUUAAUUUCGCATT against Ttc8 | inactive: 0.0473
16 | GCCAUGUAGCACGUAACAGTT against 6230416J20Rik | inactive: -1.21
17 | CCCAGUUGCUGUUCUUGACTT against Defb40 | inactive: 0.948
18 | GGACCCAGAGAAGAUCAAATT against 4930469P12Rik | inactive: -0.236
19 | GGGAACAAGUUGAGCUACUTT against Ebp | inactive: -0.625
20 | GGUAUCUGUCCAUCCAAAUTT against Tcam1 | inactive: -1.08
21 | GGAUUGUGCAUUUCAUUGUTT against Mtmr6 | inactive: -0.000463
22 | GGAUGUCAAGGUGGCAUUATT against Olfr147 | inactive: 0.525
23 | GGUCAACCUUUAAAAAACATT against Kifc2 | inactive: 1.18
24 | GGUUUUUCUGUCAAGUGCUTT against Gpr49 | inactive: -0.0802
25 | GGACAAAAUAAUGCUUUCUTT against Cnnm1 | inactive: 1.3
26 | GCAAUGAAUUCGACCCAGATT against Ppp2r5e | inactive: -1.57
27 | GGCUACAGCAAGAAGACUUTT against Ctsw | inactive: -0.879

Row | Sequence | z-score
28 | GCCCUGAAAAACAUGCAACTT against B230339H12Rik | inactive: 0.438
29 | GGAUGUUUUCCAGAAGAACTT against Map3k6 | inactive: 2.04
30 | GGAAAUCACAAACUUGUGGTT against Tm4sf12 | inactive: 0.336
31 | GGCAAGUUUGUCCAGUGGATT against Phc3 | inactive: -0.0805
32 | GGAACUGACAGCUAUGAACTT against Atp6v1d | inactive: 0.35
33 | GGGAAAAUUGAAGCUUGUATT against Tfam | inactive: -1.75
34 | GGAGGUACAUCAUCUACAATT against 6330416G13Rik | inactive: -1.03
35 | GGGAAUCCGGAGAAAAUUATT against Aco1 | inactive: 0.62
36 | CCCACUCUGUUCAGAGAGUTT against Wbscr22 | inactive: -1.04
37 | GGUGCCGACAGUAUUUACATT against A630028O16Rik | inactive: -0.503
38 | GGAGACUGUAGACUUAAAGTT against Rnf25 | inactive: 0.463
39 | GCUUCACCACUGGACAAAGTT against Adh1 | inactive: -0.956
40 | GGACGAGAAGCUCACUGUATT against Oaz2 | inactive: 0.558
41 | GCUUCCUCUUAUCAUAUAATT against Rgs13 | inactive: -0.655
42 | CCUCGAGAGACUUUCAUGGTT against F2 | inactive: -0.961
43 | GCACUUUCAUGGAUAUAAGTT against Rab22a | inactive: 1.63
44 | GCUAAACACGCUGAAUAUUTT against Phf10 | inactive: -1.03
45 | GGCAAAAUGAUCUGCUUUCTT against Rnf36 | inactive: -0.954
46 | GGACAAGCACCAGGAUUUUTT against Cyct | inactive: -0.819
47 | GGGUUUUAAUUAUACUGCGTT against Ror2 | inactive: 0.677
48 | GCUAACAUACAUCAUCAAATT against Stx5a | inactive: 0.895
49 | GCUCAAAAAACCGAAAUGATT against Pdcd1lg1 | inactive: -0.271
50 | GCCCAUUCUGUAGGUGCAUTT against Nrg4 | inactive: 1.38
51 | GGGUUAGUCUGUUAGAUCATT against 1810032O08Rik | inactive: 0.202
52 | GGAGAAGAAGGGAAAGCAUTT against Tub | inactive: -1.61
53 | GGACCAAGGAUGUUCGCUUTT against Cnr2 | inactive: 1.55
54 | GCUGGAGAACCUCCCUAAATT against Mrps33 | inactive: -0.765

Some of the entries above in another layout.
Row	Sequence	z-score
28	GCCCUGAAAAACAUGCAACTT against B230339H12Rik	inactive: 0.438
29	GGAUGUUUUCCAGAAGAACTT against Map3k6	inactive: 2.04
30	GGAAAUCACAAACUUGUGGTT against Tm4sf12	inactive: 0.336
31	GGCAAGUUUGUCCAGUGGATT against Phc3	inactive: -0.0805

Remaining list, next part:

Row | Sequence | z-score
55 | GGUGGUGGUGUUCCUCAAGTT against 2900070E19Rik | inactive: -0.261
56 | GGACCACCUAUGGACUACATT against Rbm6 | inactive: 0.0705
57 | GGUUGGAAAGCAUUUUUUATT against Commd2 | inactive: 0.497
58 | GGGUCAAAGCUCAACGAAATT against Il2rb | inactive: 1.02
59 | GGUUCAUCAAGAAGUUAGATT against Pip5k1c | inactive: -0.935
60 | GGACAUUAAGAGUGGAAAGTT against Nucb1 | inactive: -0.527
61 | GGACCGAUUAAGGAAGGAATT against Ppp1r1a | inactive: -0.815
62 | GGAGAGCUAGCUUGACAUGTT against 6330404A07Rik | inactive: 0.401
63 | GGGAGGAAGAAGAAGGUCATT against Atp1b4 | inactive: -0.71
64 | GGACGUGUUUGGGAUUGUUTT against Csad | inactive: 0.0165
65 | CGAAUAUCAUCUCACACUCTT against Olfr875 | inactive: -0.285
66 | GGUAGUUGUCCUCAUGUGCTT against Scn2b | inactive: 1.72
67 | GCGGCCAUUACCAAAAUUGTT against Olfr520 | inactive: 0.138
68 | GCAAAGGGUUCCUGUACUUTT against C330021A05Rik | inactive: 0.814
69 | GGGAGACAAUCGUUUUAGCTT against Tgfbi | inactive: 0.624
70 | GGUUACUCUAAAGUCAAGUTT against 4921525L17Rik | inactive: 0.793
71 | GGAAGAAAUGAUGAAUGACTT against 1500016L11Rik | inactive: 0.32
72 | GGAUCAGACUGUACGAGAGTT against Crygd | inactive: -0.816
73 | GGAACUCUUCUAUUACAGATT against Sfxn4 | inactive: 0.145
74 | GCAAUUUAUGCCCUGCCUUTT against Fastk | inactive: -0.896
75 | CCUUGAAAAGUCUAAACGUTT against Tmod2 | inactive: 0.494
76 | GGUCCUUGCCAAAACAAUUTT against Crb1 | inactive: -0.597
77 | GGCUGUGUAAGAUUUGUUUTT against Hmgb1 | inactive: -0.309
78 | CCACAUCUAGAUUUUGACUTT against 5830418K08Rik | inactive: 0.16
79 | GGUUAGAGUGCCUUUCCUUTT against Ctxn | inactive: -1.37
80 | CGGUAAACAUCAGUAAUGATT against Drd5 | inactive: 0.412
81 | GGUUGCUGACAAAUGAAAGTT against BB219290 | inactive: 1.99

Row | Sequence | z-score
82 | GGCGAACACUGUCAUGAAUTT against 9630042H07Rik | inactive: 1.42
83 | GCAUCCUCAGCCGUAUAUCTT against Ndufb9 | inactive: -0.253
84 | GGUCUUCUAUAUCCUGUGCTT against Fbxo6b | inactive: 1.38
85 | GCAUCUCAGCUCUGAUUUATT against 2610306H15Rik | inactive: -0.101
86 | GGAAUUUCUCUUGGAAUUGTT against 0610013E23Rik | inactive: -0.339
87 | GCCUAAAACUGCUUUGUAATT against D7Ertd462e | inactive: -0.187
88 | GGGCAGGAGAAGGAUUCAUTT against Rit1 | inactive: 1.74
89 | GGAAUAAGGACAUAAAGAATT against Olfr415 | inactive: 0.276
90 | CCAAUGCUUCUAGUUAACATT against Olfr155 | inactive: 0.0629
91 | GCAUAAAAAACGAAUAGAGTT against Smc1l2 | inactive: 0.436
92 | GGGCUAAUAUACAGAAAUATT against Rrm2b | inactive: 1.13
93 | GGAAGAUUGUAACUGAUUATT against Cpa4 | inactive: 0.401
94 | GGUGAUGGAAGAAGAAGGCTT against Stk38 | inactive: -1.23
95 | GGAUGACUCGGAGAACUACTT against Psca | inactive: 0.643
96 | GGAAAUCACAUUGUCCUGCTT against 3010003L21Rik | inactive: -0.743
97 | GGAAGUAGCUUAUUGUUCUTT against Polr2b | inactive: -3.27
98 | GCAAUAAGUUGACUGUGGATT against Zxda | inactive: -0.649
99 | GGGUAGUAACAAUUAGAUCTT against 2900041A09Rik | inactive: 0.0344
100 | CCGGCUACUUCAUACCAGATT against Fxyd6 | inactive: 0.913
101 | GUACUUGAGGCAGAAGGCATT against Cyp3a11 | inactive: -0.0219
102 | CGUUUCCAGAUUGCACCUUTT against 2610207P08Rik | inactive: -0.692
103 | GCUGUUACUCAGCAGAGAGTT against Bach2 | inactive: -0.64
104 | CCUGUUGAGUGACCUAAGGTT against Gm962 | inactive: -0.4
105 | GGCAACUGUGUGCUUGUGATT against Pla2g2d | inactive: -1.82

A few values from the entries so far.
z-score, CGUUUCCAGAUUGCACCUUTT against 2610207P08Rik reads inactive: -0.692
z-score, GGAGGUACAUCAUCUACAATT against 6330416G13Rik reads inactive: -1.03
z-score, GGUGACAGAGAUUUUCGAATT against D15Ertd781e reads inactive: 0.203
z-score, GCGGCCAUUACCAAAAUUGTT against Olfr520 reads inactive: 0.138
z-score, GGCACAAACCUCUUUUGUUTT against Rtkn reads inactive: 2.12
